In the supplement of paper PMC4604168 (melanoma cell lines):
The other results are listed elsewhere or left out. Many values rest on one well or one pass, so single values are uncertain.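 Imaging used 1,536-well plates; nuclei positive for cleaved PARP by antibody were divided by total DNA-stained nuclei to yield the apoptosis fraction. Doses for screening kept most cells viable, and cell lines differ markedly in resting and induced cleaved-PARP levels.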

system: RVH-421; experiment: cleaved PARP positive nuclei fraction relative to DMSO control; melanoma cells; higher = more apoptosis; details: library dose: low library concentration; 72 h

Structure (SMILES) | cleaved PARP positive nuclei fraction
NC(=O)c1ccc(N(C(N)=O)c2c(F)cccc2F)nc1-c1ccc(F)cc1F + C#Cc1cccc(Nc2ncnc3cc(OCCOC)c(OCCOC)cc23)c1 [erlotinib] (first compound 0.4 µM, partner dose 0.8 µM) | 117%
CS(=O)(=O)c1ccc(C(=O)Nc2ccc(Cl)c(-c3ccccn3)c2)c(Cl)c1 [vismodegib] + Nc1nc(F)nc2c1ncn2[C@@H]1O[C@H](CO)[C@@H](O)[C@@H]1O [fludarabine] (first compound 1 µM, partner dose 0.2 µM) | 68.3%
NC(=O)c1ccc(N(C(N)=O)c2c(F)cccc2F)nc1-c1ccc(F)cc1F + C=CCNC1=C2C[C@@H](C)C[C@H](OC)[C@H](O)[C@@H](C)/C=C(\C)[C@H](OC(N)=O)[C@@H](OC)/C=C\C=C(/C)C(=O)NC(=CC1=O)C2=O [Tanespimycin] (first compound 0.4 µM, partner dose 0.002 µM) | 174%
CC(=O)O[C@@]12CO[C@@H]1C[C@H](O)[C@@]1(C)C(=O)[C@H](O)C3=C(C)[C@@H](OC(=O)[C@H](O)[C@@H](NC(=O)OC(C)(C)C)c4ccccc4)C[C@@](O)([C@@H](OC(=O)c4ccccc4)[C@H]21)C3(C)C [Docetaxel] + C=C(c1ccc(C(=O)O)cc1)c1cc2c(cc1C)C(C)(C)CCC2(C)C [Bexarotene] (first compound 0.0001 µM, partner dose 2 µM) | 78.9%
CC(=O)O[C@@]12CO[C@@H]1C[C@H](O)[C@@]1(C)C(=O)[C@H](O)C3=C(C)[C@@H](OC(=O)[C@H](O)[C@@H](NC(=O)OC(C)(C)C)c4ccccc4)C[C@@](O)([C@@H](OC(=O)c4ccccc4)[C@H]21)C3(C)C [Docetaxel] + C[C@]1(c2nc3c(C(N)=O)cccc3[nH]2)CCCN1 [Veliparib] (first compound 0.0001 µM, partner dose 1.4 µM) | 263%
